Out of some 360,000 compounds screened, about 780 (0.22%) were called active. This list was built around the results that the source calls inconclusive (neither active nor inactive); the mix of calls is not that of the screen. Rule as the data show it: active = inhibition above about 35% (passing the limit was not always enough); inconclusive = no clear call, values can overlap the other calls.
System: Botulinum neurotoxin type F light chain protease (Clostridium botulinum)
Assay: BoNT/F light chain protease inhibitors, primary screen, biochemical, flow cytometry, MLPCN library (AID 588497); also: plate controls were buffer without enzyme for full effect and enzyme alone for no effect
Settings: Multiplex microsphere protease cleavage assay, at 10 µM, stronger effect = higher value

Structure (SMILES) | inhibition
CC(C)CNC(=O)c1cccc(NC(=O)c2ccc3c(c2)C(=O)N(C)C3=O)c1 | inconclusive: 13%
COC(=O)[C@H](Cc1ccccc1)NC(=O)N1CCN(Cc2ccccc2)CC1 | inactive: -1.9%
Cc1ccc(OS(=O)(=O)c2ccc(N3C(=O)CCC3=O)cc2)cc1 | inactive: 1.6%
CN(Cc1ccccc1F)C(=O)c1cccc(NC(=O)CC2SC(N3CCCCC3)=NC2=O)c1 (stereo not given) | inconclusive: -7%
COCCN(CC1CCCN(C2Cc3ccccc3C2)C1)C(=O)CSC (stereo not given) | inconclusive: -23.7%
Cc1ccccc1NS(=O)(=O)c1cccc(C(=O)Nc2cccc(C(=O)O)c2)c1 | inconclusive: 13%
O=C(Nc1nccs1)c1cc(Cl)nc2ccccc12 | inconclusive: 15.2%
COC(=O)c1cccc(Nc2c3c(nc4ccccc24)CCC3)c1 | inconclusive: -1%
CN1N=C2c3ccccc3CCC2C1c1ccc(Cl)cc1 (stereo not given) | inconclusive: 30.4%
O=C(NNS(=O)(=O)c1ccccc1Cl)c1nn(-c2ccc(F)cc2)ccc1=O | inconclusive: 31.3%
COC(=O)C(Cc1c[nH]c2ccccc12)NC(=O)c1ccc2nc[nH]c2c1 (stereo not given) | inconclusive: -7.7%
O=[N+]([O-])c1cccc2c3c([nH]c12)CCCC3 | inconclusive: 20.5%
COc1ccc(NC(=O)c2ccc3ccccc3n2)cc1S(=O)(=O)N1CCCCC1 | inactive: 3.3%
N=c1n(CCN2CCCCC2)c2ccccc2n1CC(O)c1ccco1 (stereo not given) | inconclusive: -65.9%
Cc1ccc(S(=O)(=O)N(C)C)cc1NC(=O)COC(=O)CCC1CCCC1 | inconclusive: -14.7%
COc1ccc(Nc2nc(NCCN3CCOCC3)nc(Nc3ccc(OC)cc3)n2)cc1 | inconclusive: -24.4%
COc1cccc(C(=O)O/N=C(\N)c2ccccn2)c1 | inconclusive: -22.5%
CCc1ccc(N2CN(CCc3ccccc3)CNC2=S)cc1 | inactive: -15.9%
CCCCn1c(N)c(N(CCC(C)C)C(=O)COC(=O)Cc2ccc(Cl)cc2)c(=O)[nH]c1=O | inactive: 0.5%
CCCCn1nc2cc(C(=O)N[C@H](C)C3CCCCC3)ccc2c1OCC | inactive: -4.6%
O=[N+]([O-])c1ccccc1Nc1nc(-c2cccnc2)cs1 | inconclusive: -13.9%
O=C(CCN1C(=O)c2ccccc2C1=O)N1CCN(c2ccccc2)CC1 | inactive: 8%
Brc1ccc(OCCCOc2cccc3cccnc23)cc1 | inconclusive: 31%

Structure (SMILES) | inhibition
CCN(CC)c1ccc(/C=N/n2c(C)cc(C)cc2=O)cc1 | inactive: 6.1%
O=C(CN1C(=O)COc2ccccc21)NCc1ccc(C(=O)O)cc1 | inactive: 2.3%
COc1ccc(S(=O)(=O)CCC(=O)Nc2c(C)n(C)n(-c3ccccc3)c2=O)cc1 | inactive: 8.4%
Cc1nn(-c2ccccc2)c(C)c1-c1nnc(-c2c(C)nn(-c3ccccc3)c2C)o1 | inconclusive: 42.2%
Clc1ccccc1-c1csc(Nc2cccnc2)n1 | inconclusive: 68.4%
CCc1nc(SCc2ccc(OCC(C)C)cc2)n[nH]1 | inconclusive: 10.9%
Cc1nn2c(NCc3ccccn3)cc(C(C)(C)C)nc2c1-c1ccccc1 | inconclusive: -17.3%
COc1ccc(NS(=O)(=O)c2ccc3oc(Nc4ccc5c(c4)OCCO5)nc3c2)cc1 | inactive: 1.8%
CN(C(=O)C1CCC1C(=O)O)c1nc(-c2ccc(Cl)s2)cs1 (stereo not given) | inconclusive: 25.3%
O=C(NC(=S)NN1CCCCC1c1cccnc1)c1ccc(Cl)cc1Cl (stereo not given) | inconclusive: -11.4%
CCN(CC)S(=O)(=O)c1ccc(C(C)NC(=O)Cc2c[nH]c3ccccc23)cc1 (stereo not given) | inactive: 10.6%
Cc1ccc(S(=O)(=O)N2CCN(c3ncccn3)CC2)c(C)c1 | inconclusive: -14.7%
Cc1cccc(C(=O)NC(=S)NCc2ccccc2)c1 | inconclusive: -30.6%
CCCOC(=O)C1=C(C)NC2=C(C(=O)C(C(=O)OC)C(C)C2)C1c1ccc(N(C)C)cc1 (stereo not given) | inconclusive: -29.4%
COc1ccc(S(=O)(=O)N2CCCCCC2)cc1C(=O)N1CCCC(C(F)(F)F)C1 (stereo not given) | inconclusive: 9.8%
CC1CCN(C(=O)CNC(=O)CNS(=O)(=O)c2ccccc2)CC1 | inconclusive: 35.4%
Cc1nnsc1C(=O)NNc1ccc(C(C)C)cc1 | inconclusive: -4.6%
CCOC(=O)C(NCCOC)(NC(C)=O)C(F)(F)F (stereo not given) | inconclusive: 16.5%
COCCNC(=O)C(c1cccs1)N(Cc1cccs1)C(=O)Cn1nnc2ccccc21 (stereo not given) | inconclusive: -9.5%
CCn1cc(C(=O)NCCN(C)CCc2ccccc2)c(=O)c2cc(S(=O)(=O)N(C)C)ccc21 | inactive: -2.8%
CCn1cc(C(=O)N2CCN(C3CCCCC3)CC2)c2cc(OC)c(OC)cc2c1=O | active: 35%
CCOC(=O)c1sc(Nc2ccc(Br)cc2)nc1C | inconclusive: 53.6%
Cc1ccccc1NC(=O)C(=O)NCCCN1CCCC1=O | inconclusive: -0.5%

Structure (SMILES) | inhibition
O=c1[nH]c(C2CCN(S(=O)(=O)c3ccc4c(c3)OCCO4)CC2)nc2c1nnn2Cc1ccccc1 | inactive: 1.5%
CN(CC(=O)NCCc1ccc(S(N)(=O)=O)cc1)CC(=O)Nc1cccc(F)c1 | inconclusive: 14.8%
COC(=O)c1ccc(C(=O)OC)c(NC(=O)CSCC(=O)O)c1 | inconclusive: -144%
CCOC(=O)N1CCN(C(=O)c2cccn3c(=O)c4cc(Cl)ccc4nc23)CC1 | inactive: 4.9%
NS(=O)(=O)c1cccc(NC(=O)CC(NC(=O)c2ccccc2Cl)c2ccccc2)c1 (stereo not given) | active: 34.7%
COc1ccc(NS(=O)(=O)c2ccc3[nH]c(=O)[nH]c3c2)cc1 | inconclusive: -23.9%
CC(C)c1nc(NCCO)c(C#N)c2c1CCCC2 | inconclusive: 22%
CCN(CC)C(=O)COc1ccc2c(-c3ccccc3)cc(=O)oc2c1 | inconclusive: 1%
Cc1cc([N+](=O)[O-])nn1CC(=O)N(C)Cc1ccccc1 | inconclusive: 16.8%
c1ccc(-c2nn[nH]n2)cc1 | inconclusive: -7.3%
COc1ccc(C2CC(=O)C=C(NCc3ccc4c(c3)OCO4)C2)cc1 (stereo not given) | inconclusive: -24.3%
COc1ccc(OCC(=O)NC2CCCCCCC2)cc1 | inactive: -12.6%
O=C(CN1c2ccccc2Sc2ccccc21)NNC(=O)Nc1ccc(Cl)c(Cl)c1 | inconclusive: -43.3%
COc1ccc(CC(=O)NNC2=Nc3cccc4cccc2c34)cc1 | inconclusive: 8.5%
COc1ccc(NC(=O)CCC(=O)Nc2nnc(C(F)(F)F)s2)c(OC)c1 | inactive: -2%
CCOC(=O)c1cnc2c(cnn2C)c1NCCC(O)C(F)(F)F (stereo not given) | inactive: 4.2%
O=C(CSc1nc(C2CC2)nc2ccccc12)N1CCc2ccccc21 | inactive: -2.6%
COCCN(C(=O)COC(=O)c1cccnc1SC)c1c(N)n(Cc2ccccc2)c(=O)[nH]c1=O | inconclusive: -9.4%
COc1cccc(/C=N/NC(=O)CSc2cccc3cccnc23)c1 | inconclusive: -20.4%
COc1ccc(CNC(=O)/C=C/C(=O)O)cc1 | inconclusive: 58.6%
CCN(CC)c1ccc(C=Nc2ccc(C)cc2)c(O)c1 | inactive: 10.6%
O=C(Nc1ccccc1NC(=O)c1ccccc1Cl)c1ccccc1Cl | inconclusive: -37.8%
Cc1ccc(Nc2c([N+](=O)[O-])ccc3nonc23)c(C)c1 | inconclusive: -0.6%

In a second layout: results already given
Structure (SMILES)	inhibition
CCOC(=O)N1CCN(C(=O)c2cccn3c(=O)c4cc(Cl)ccc4nc23)CC1	inactive: 4.9%
NS(=O)(=O)c1cccc(NC(=O)CC(NC(=O)c2ccccc2Cl)c2ccccc2)c1 (stereo not given)	active: 34.7%
COc1ccc(NS(=O)(=O)c2ccc3[nH]c(=O)[nH]c3c2)cc1	inconclusive: -23.9%
CC(C)c1nc(NCCO)c(C#N)c2c1CCCC2	inconclusive: 22%

Remaining list, next part.

Structure (SMILES) | inhibition
O=C(Cn1nnnc1CN1CCOCC1)N1CCC(c2cccc(Cl)c2)C1 (stereo not given) | inactive: 2.5%
C(=C\c1nccc2c1[nH]c1ccccc12)/c1ccccc1 | inconclusive: 0.7%
CC(C)CCNC(=O)C(=O)NCc1ccccc1 | inconclusive: 31.1%
CC(CNC(=O)c1cccc(Br)c1)n1cncn1 (stereo not given) | inconclusive: -34.7%
Cc1nn(-c2ccccc2C(F)(F)F)c(=O)c2noc(C)c12 | inconclusive: -4.2%
COC(=O)c1cccc(NS(C)(=O)=O)c1 | inconclusive: 126%
Cc1ccc(C)c(NC(=O)c2cnccn2)c1 | inconclusive: -267%
COC(=O)/C(C#N)=C/c1c(Oc2cccc(C)c2)nc2ccccn2c1=O | inconclusive: -20.3%
COc1ccc(NC(=O)C2(C)CCN2CCc2ccccc2)cc1OC (stereo not given) | inactive: 2.8%
Cc1ccc(NC(=O)CSc2nnc(C)n2-c2ccccc2)cc1 | inconclusive: -2.6%
COc1ccc(OCC(O)CN2CCNCC2)cc1 (stereo not given) | inconclusive: -1.6%
CCC(=NCC1CCCO1)c1c(O)n(-c2ccc(OC)cc2)c(=O)[nH]c1=O (stereo not given) | inconclusive: 27.5%
CCc1nc2oc(C(=O)c3ccccc3)c(N)c2c2c1COC(C)(C)C2 | inactive: -1.1%
Cc1nn(Cc2ccc(C(=O)N3N=C(C(F)F)CC3(O)C(F)F)o2)c(C)c1[N+](=O)[O-] (stereo not given) | inactive: 3.4%
COc1ccc(NC(=O)NC23CC4CC(CC(C4)C2)C3)cc1OC | inactive: -9.1%
CN1/C(=C\C(=O)COC(=O)CNC(=O)c2ccc3ccccc3c2)C(C)(C)c2ccccc21 | inconclusive: -12.9%
Cc1cc(S(=O)(=O)NCc2ccc3c(c2)OCO3)ccc1F | inconclusive: 5.1%
FCCCOc1ccc(CN2CCN(c3ccccc3F)CC2)cc1 | inactive: -2.2%
COc1ccc(NC(=O)CC(Cc2ccc(Cl)cc2)C(=O)O)cc1 (stereo not given) | inconclusive: -19.2%
CCOc1ccccc1-n1c(SCC(N)=O)nc2ccccc2c1=O | inactive: 0.6%
O=[N+]([O-])c1ccccc1/C=C/C=N/n1c(-c2cc(-c3ccccc3)n[nH]2)n[nH]c1=S | inconclusive: 33.5%

From PubChem BioAssay AID588497 (NMMLSC, 2011)
